We go through three molecules from publication doi:10.1101/354316.

Chains of the proteins cited; added tags and fusions are not shown.
UniProt Q9C0H5: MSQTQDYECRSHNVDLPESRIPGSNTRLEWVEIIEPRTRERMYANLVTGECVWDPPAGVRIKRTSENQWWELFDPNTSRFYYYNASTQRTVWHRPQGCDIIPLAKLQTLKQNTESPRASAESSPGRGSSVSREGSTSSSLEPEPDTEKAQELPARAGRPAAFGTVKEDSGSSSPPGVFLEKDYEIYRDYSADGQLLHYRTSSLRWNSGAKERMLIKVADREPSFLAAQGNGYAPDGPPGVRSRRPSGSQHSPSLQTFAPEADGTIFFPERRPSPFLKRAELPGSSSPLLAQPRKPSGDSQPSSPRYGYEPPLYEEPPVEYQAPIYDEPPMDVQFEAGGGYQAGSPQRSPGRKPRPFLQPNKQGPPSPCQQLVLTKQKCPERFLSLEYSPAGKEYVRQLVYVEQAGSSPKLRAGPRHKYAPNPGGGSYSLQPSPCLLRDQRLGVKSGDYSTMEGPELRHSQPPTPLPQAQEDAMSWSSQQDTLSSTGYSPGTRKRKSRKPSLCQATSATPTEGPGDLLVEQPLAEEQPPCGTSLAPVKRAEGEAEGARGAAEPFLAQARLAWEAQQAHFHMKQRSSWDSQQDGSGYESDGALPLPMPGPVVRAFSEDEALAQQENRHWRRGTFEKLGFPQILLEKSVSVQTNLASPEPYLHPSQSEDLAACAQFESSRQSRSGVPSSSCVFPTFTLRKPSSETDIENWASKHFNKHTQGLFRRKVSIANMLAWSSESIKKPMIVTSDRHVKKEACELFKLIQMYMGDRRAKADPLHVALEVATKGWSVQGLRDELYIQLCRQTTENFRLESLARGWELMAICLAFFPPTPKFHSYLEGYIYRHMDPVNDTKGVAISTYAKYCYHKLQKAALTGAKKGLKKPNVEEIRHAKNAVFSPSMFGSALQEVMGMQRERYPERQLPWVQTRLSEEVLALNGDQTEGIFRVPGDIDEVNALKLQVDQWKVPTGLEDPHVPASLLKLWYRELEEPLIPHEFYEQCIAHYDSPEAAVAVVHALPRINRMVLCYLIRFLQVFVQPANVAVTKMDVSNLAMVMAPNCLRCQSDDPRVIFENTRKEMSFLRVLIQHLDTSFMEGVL
UniProt O43150: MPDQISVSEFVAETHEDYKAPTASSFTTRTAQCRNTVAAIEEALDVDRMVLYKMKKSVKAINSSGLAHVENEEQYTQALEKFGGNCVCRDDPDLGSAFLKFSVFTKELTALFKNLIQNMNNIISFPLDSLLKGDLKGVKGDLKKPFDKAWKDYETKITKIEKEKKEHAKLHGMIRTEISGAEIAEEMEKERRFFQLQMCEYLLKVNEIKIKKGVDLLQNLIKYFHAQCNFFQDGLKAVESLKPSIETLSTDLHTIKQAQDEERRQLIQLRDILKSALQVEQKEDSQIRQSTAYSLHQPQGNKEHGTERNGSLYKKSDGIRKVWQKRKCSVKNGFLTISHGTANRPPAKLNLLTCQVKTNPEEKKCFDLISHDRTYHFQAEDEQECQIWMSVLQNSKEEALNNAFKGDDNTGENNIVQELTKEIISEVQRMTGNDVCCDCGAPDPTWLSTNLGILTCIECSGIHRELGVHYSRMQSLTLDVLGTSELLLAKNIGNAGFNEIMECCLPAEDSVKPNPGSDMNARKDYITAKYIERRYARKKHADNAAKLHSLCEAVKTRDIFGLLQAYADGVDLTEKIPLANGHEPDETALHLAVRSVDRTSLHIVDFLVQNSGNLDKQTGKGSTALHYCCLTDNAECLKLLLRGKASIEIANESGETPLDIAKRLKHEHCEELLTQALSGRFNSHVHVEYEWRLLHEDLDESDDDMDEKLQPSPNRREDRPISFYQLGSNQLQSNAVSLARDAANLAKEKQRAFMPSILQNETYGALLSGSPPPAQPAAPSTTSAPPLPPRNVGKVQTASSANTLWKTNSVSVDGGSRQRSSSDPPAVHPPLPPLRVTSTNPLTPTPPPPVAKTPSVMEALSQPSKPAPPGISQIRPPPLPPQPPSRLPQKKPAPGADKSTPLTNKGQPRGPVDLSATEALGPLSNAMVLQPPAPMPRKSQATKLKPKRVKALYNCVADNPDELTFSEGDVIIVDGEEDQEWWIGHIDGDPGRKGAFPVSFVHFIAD
UniProt Q9H792: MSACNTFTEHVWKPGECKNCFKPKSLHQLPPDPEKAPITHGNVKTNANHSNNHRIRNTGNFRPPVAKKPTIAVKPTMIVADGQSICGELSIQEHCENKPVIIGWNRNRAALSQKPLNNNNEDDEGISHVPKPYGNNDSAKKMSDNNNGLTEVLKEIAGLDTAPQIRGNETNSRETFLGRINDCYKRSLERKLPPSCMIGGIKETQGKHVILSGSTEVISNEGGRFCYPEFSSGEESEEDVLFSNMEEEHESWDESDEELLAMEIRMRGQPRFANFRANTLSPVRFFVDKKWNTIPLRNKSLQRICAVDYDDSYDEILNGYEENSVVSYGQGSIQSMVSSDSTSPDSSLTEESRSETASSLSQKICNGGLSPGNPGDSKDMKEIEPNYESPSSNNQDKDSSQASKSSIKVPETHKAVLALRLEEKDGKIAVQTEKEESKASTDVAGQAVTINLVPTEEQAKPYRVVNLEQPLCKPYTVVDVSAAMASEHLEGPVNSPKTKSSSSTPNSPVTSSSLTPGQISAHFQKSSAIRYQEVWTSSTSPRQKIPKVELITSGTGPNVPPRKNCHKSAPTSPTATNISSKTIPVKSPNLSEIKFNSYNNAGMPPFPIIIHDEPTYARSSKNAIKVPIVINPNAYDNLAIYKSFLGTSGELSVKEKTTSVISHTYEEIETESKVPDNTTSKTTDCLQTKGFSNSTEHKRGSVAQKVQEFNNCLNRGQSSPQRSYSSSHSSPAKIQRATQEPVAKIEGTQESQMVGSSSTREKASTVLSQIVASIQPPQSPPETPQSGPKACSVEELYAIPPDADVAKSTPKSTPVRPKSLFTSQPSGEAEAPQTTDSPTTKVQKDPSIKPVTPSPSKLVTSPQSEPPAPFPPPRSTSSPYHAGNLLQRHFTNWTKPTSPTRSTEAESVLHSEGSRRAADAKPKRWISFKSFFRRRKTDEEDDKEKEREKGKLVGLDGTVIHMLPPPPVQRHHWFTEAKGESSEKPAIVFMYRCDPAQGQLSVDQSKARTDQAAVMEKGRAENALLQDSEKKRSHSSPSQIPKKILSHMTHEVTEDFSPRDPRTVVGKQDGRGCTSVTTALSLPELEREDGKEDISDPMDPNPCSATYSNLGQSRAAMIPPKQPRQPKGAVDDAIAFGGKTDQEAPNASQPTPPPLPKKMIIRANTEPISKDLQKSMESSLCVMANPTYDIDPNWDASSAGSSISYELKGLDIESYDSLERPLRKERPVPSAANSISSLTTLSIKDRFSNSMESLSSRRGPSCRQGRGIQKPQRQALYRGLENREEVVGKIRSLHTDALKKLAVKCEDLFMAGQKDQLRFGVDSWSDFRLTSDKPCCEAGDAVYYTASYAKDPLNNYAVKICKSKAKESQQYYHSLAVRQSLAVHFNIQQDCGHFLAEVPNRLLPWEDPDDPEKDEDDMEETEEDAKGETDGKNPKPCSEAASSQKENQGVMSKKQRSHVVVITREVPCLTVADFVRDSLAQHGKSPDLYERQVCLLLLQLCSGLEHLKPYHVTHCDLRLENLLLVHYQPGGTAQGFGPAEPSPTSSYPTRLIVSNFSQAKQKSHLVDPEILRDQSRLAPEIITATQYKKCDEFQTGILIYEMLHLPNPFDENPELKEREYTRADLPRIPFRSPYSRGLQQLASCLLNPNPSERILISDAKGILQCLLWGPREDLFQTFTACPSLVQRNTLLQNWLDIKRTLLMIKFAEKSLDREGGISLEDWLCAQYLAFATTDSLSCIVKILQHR

These are yes or no findings as the source states them, for the method shown. Binding seen in cells or lysates may run through a third protein. Here binding means that the protein was enriched with, or labelled near, the bait; the list need not be complete.

Holding throughout (assay): affinity purification with mass spectrometry
The target of assay [1] is T1, ARHGAP12 (not stated (library cDNAs: human, mouse, rat or chimpanzee; Table S1)) (UniProt Q8IWW6).
T1 sequence: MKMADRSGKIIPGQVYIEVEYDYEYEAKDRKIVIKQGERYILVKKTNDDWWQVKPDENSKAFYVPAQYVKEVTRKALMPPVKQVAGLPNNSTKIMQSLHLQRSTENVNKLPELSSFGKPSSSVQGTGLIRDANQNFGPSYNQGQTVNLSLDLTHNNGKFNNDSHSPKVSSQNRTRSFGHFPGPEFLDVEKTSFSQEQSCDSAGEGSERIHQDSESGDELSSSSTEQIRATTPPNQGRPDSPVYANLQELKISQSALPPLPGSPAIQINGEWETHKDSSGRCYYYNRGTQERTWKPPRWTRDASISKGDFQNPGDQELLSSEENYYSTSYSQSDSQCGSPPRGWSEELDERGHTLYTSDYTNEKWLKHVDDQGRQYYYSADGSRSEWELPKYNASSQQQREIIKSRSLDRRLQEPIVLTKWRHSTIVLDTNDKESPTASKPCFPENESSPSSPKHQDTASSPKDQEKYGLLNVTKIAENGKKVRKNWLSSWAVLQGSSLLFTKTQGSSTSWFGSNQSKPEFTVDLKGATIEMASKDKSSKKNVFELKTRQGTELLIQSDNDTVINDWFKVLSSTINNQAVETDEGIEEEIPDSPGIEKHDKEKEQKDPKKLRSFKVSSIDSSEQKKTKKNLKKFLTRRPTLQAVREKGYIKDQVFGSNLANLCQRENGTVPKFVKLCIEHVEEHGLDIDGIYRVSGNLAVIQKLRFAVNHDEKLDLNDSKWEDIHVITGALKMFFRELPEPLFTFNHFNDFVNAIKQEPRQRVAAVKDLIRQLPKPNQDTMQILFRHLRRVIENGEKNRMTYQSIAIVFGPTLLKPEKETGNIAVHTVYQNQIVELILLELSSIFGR

Assay [2] concerns the target ARHGAP39 (bait of the interactome screen) (human) (UniProt Q9C0H5).
Assay [3] concerns the target T2, ARHGEF10L (not stated (library cDNAs: human, mouse, rat or chimpanzee; Table S1)) (UniProt Q9HCE6).
T2 sequence: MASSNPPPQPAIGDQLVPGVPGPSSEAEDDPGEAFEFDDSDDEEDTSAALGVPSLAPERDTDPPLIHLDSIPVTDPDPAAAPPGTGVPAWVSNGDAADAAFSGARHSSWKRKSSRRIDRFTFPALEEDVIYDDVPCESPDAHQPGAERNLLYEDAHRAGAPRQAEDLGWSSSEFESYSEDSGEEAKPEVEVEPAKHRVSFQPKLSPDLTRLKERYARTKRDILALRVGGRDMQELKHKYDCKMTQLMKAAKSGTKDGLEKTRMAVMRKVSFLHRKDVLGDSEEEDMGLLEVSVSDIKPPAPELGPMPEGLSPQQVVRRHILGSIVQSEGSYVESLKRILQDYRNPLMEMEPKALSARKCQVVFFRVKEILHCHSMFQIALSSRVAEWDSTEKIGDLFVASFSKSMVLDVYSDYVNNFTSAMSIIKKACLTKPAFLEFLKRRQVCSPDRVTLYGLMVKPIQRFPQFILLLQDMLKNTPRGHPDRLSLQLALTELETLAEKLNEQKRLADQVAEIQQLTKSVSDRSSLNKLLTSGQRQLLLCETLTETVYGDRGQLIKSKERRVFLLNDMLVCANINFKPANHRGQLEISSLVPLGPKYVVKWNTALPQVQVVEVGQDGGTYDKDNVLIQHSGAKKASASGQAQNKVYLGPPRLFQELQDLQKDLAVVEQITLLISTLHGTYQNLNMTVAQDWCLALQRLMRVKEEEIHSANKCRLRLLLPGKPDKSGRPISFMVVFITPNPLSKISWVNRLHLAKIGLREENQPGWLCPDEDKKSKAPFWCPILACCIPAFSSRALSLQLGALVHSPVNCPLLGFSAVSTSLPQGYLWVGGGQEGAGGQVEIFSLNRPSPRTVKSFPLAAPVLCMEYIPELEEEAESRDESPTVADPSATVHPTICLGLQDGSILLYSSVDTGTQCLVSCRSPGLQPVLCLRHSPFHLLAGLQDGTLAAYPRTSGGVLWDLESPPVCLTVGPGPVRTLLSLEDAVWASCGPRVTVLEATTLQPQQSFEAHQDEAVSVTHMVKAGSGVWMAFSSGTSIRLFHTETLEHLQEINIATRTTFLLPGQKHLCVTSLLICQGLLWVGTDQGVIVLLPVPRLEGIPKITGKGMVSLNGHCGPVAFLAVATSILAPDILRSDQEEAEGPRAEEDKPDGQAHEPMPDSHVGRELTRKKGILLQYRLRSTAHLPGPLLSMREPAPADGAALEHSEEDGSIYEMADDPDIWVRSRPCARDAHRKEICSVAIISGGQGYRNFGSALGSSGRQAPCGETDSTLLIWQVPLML

Regarding ASAP2 (from UniProt O43150 1-1006), in assay [1], the binding result is “binds”.
Consider “PEAK1 (prey of the interactome screen) (from UniProt Q9H792 1-1746)”, for which the binding entry in assay [2] is on record as “binds”.

B1: ARHGEF10 (protein, UniProt O15013 1-1369)
chain: MRPPGFLSRAPSLNRAERGIWSCSMDQREPLPPAPAENEMKYDTNNNEEEEGEQFDFDSGDEIPEADRQAPSAPETGGAGASEAPAPTGGEDGAGAETTPVAEPTKLVLPMKVNPYSVIDITPFQEDQPPTPVPSAEEENVGLHVPCGYLVPVPCGYAVPSNLPLLLPAYSSPVIICATSLDEEAETPEVTEDRQPNSLSSEEPPTSEDQVGREDSALARWAADPANTAWMENPEEAIYDDVPRENSDSEPDEMIYDDVENGDEGGNSSLEYGWSSSEFESYEEQSDSECKNGIPRSFLRSNHKKQLSHDLTRLKEHYEKKMRDLMASTVGVVEIQQLRQKHELKMQKLVKAAKDGTKDGLERTRAAVKRGRSFIRTKSLIAQDHRSSLEEEQNLFIDVDCKHPEAILTPMPEGLSQQQVVRRYILGSVVDSEKNYVDALKRILEQYEKPLSEMEPKVLSERKLKTVFYRVKEILQCHSLFQIALASRVSEWDSVEMIGDVFVASFSKSMVLDAYSEYVNNFSTAVAVLKKTCATKPAFLEFLKQEQEASPDRTTLYSLMMKPIQRFPQFILLLQDMLKNTSKGHPDRLPLQMALTELETLAEKLNERKRDADQRCEVKQIAKAINERYLNKLLSSGSRYLIRSDDMIETVYNDRGEIVKTKERRVFMLNDVLMCATVSSRPSHDSRVMSSQRYLLKWSVPLGHVDAIEYGSSAGTGEHSRHLAVHPPESLAVVANAKPNKVYMGPGQLYQDLQNLLHDLNVIGQITQLIGNLKGNYQNLNQSVAHDWTSGLQRLILKKEDEIRAADCCRIQLQLPGKQDKSGRPTFFTAVFNTFTPAIKESWVNSLQMAKLALEEENHMGWFCVEDDGNHIKKEKHPLLVGHMPVMVAKQQEFKIECAAYNPEPYLNNESQPDSFSTAHGFLWIGSCTHQMGQIAIVSFQNSTPKVIECFNVESRILCMLYVPVEEKRREPGAPPDPETPAVRASDVPTICVGTEEGSISIYKSSQGSKKVRLQHFFTPEKSTVMSLACTSQSLYAGLVNGAVASYARAPDGSWDSEPQKVIKLGVLPVRSLLMMEDTLWAASGGQVFIISVETHAVEGQLEAHQEEGMVISHMAVSGVGIWIAFTSGSTLRLFHTETLKHLQDINIATPVHNMLPGHQRLSVTSLLVCHGLLMVGTSLGVLVALPVPRLQGIPKVTGRGMVSYHAHNSPVKFIVLATALHEKDKDKSRDSLAPGPEPQDEDQKDALPSGGAGSSLSQGDPDAAIWLGDSLGSMTQKSDLSSSSGSLSLSHGSSSLEHRSEDSTIYDLLKDPVSLRSKARRAKKAKASSALVVCGGQGHRRVHRKARQPHQEELAPTVMVWQIPLLNI
With B1, the binding entry in assay [3] was “binds”.
